Results from PubChem BioAssay AID2685 (National Center for Advancing Translational Sciences (NCATS), 2010).
Some of the results follow. Further columns of the screen follow, without active or inactive calls. The list favours compounds with an active or inconclusive main result. The note in brackets gives the kind of curve behind each potency; many fits are weak.

Assay: qHTS Assay for Lipid Storage Modulators in Drosophila S3 Cells;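 as to cell number change: cells counted by Cell Tracker Red CMTPX staining in the red channel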
Details: BODIPY lipid droplet fluorescence, 18-24 h; for cell number change: measured here: cell count max response, cells fed with added oleic acid
Method in brief: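 Laser-scanning cytometry quantifies lipid droplet accumulation (500–530 nm total intensity; droplet/cell object ratio) in oleic acid-fed (400 uM added) Drosophila S3 cells treated with a concentration series. 20 uM Triacsin C defined 100% inhibition.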

[1] = measured here: lipid fluorescence (Fed channel) AC50, cells fed with added oleic acid
[2] = measured here: cell number channel AC50, cells fed with added oleic acid

COc1ccc(OCCNC(=O)CSc2ccc(C(F)(F)F)cc2[N+](=O)[O-])cc1
cell number change: 9.47% | AC50 [1]: 8.2 µM [rising, partial curve]

CCN(CC(=O)NCc1cccs1)C(=O)/C=C/c1cc(Br)ccc1OC(F)F
cell number change: -35.1% | AC50 [2]: 23.1 µM [falling, single point] | AC50 [1]: 25.9 µM [falling, partial curve, poor fit]

O=C1CC(N2CCN(Cc3ccc4c(c3)OCO4)CC2)C(=O)N1c1cccc(Cl)c1 (stereo not given)
cell number change: 34.4% | AC50 [2]: 8.2 µM [rising, partial curve] | AC50 [1]: 6.51 µM [falling, single point]

CCCCC(=O)Nc1cc(C(=O)NCCc2ccccc2)ccc1Cl
cell number change: -8.32% | AC50 [1]: 0.517 µM [falling, full curve, poor fit]

COC(=O)C1CCN(C(=O)NC2CC(=O)N(c3ccc4c(c3)OCCO4)C2)CC1 (stereo not given)
cell number change: -36.4% | AC50 [2]: 0.0517 µM [falling, full curve, poor fit] | AC50 [1]: 0.146 µM [falling, full curve, poor fit]

COC(=O)Cc1c(C)c2ccc(OC3CCCCC3=O)cc2oc1=O (stereo not given)
cell number change: 11.7% | AC50 [2]: 6.51 µM [rising, single point]

COc1ccc(CC(=S)N2CCOCC2)cc1
cell number change: -77.6% | AC50 [2]: 2.59 µM [falling, full curve] | AC50 [1]: 4.11 µM [falling, partial curve]

CCn1c(-c2cc(-c3cccc(OC)c3)nc3ccccc23)n[nH]c1=S
cell number change: 24.6% | AC50 [2]: 2.59 µM [rising, full curve, poor fit]

CCc1c(C)nc2c(-c3ccccc3OC)c(C)[nH]n2c1=O
cell number change: -23.5% | AC50 [2]: 4.11 µM [falling, full curve, poor fit] | AC50 [1]: 0.651 µM [falling, full curve, poor fit]

CSc1ccccc1C(=O)Nc1ccccc1C
cell number change: 65.9%

CN(C)S(=O)(=O)c1ccc(Cl)c(NC(=O)c2ccncc2)c1
cell number change: 2.52% | AC50 [2]: 0.651 µM [rising, single point] | AC50 [1]: 14.6 µM [rising, partial curve]

O=C(NC(=S)Nc1ccccc1Cl)C1CC1
cell number change: 10.6% | AC50 [1]: 9.2 µM [rising, partial curve, poor fit]

CC(C)CNC(=S)NC(=O)c1ccccc1Cl
cell number change: 10.4% | AC50 [2]: 0.00461 µM [rising, full curve, poor fit]

Cc1ccc(C)c2c1[nH]c1ccc([N+](=O)[O-])cc12
AC50 [2]: 0.13 µM [rising, full curve, poor fit] | AC50 [1]: 9.2 µM [rising, partial curve]

CCOC(=O)c1c(NC(=O)COC(=O)c2nc(Cl)ccc2Cl)sc(C(=O)NC)c1C
cell number change: -2.41%

CCN(C(=O)c1ccc(S(=O)(=O)N2CCCCC2)cc1)C1CCS(=O)(=O)C1 (stereo not given)
AC50 [2]: 0.00461 µM [falling, full curve, poor fit]

COc1cc2ccccc2cc1C(=O)N1CCCC(C(F)(F)F)C1 (stereo not given)
cell number change: -18%

Cc1ccc(-c2ccc(SCC(=O)Nc3nonc3C)nn2)cc1
cell number change: -22.5% | AC50 [1]: 0.58 µM [falling, single point]

O=C(CN1C(=O)S/C(=C\C=C\c2ccccc2)C1=O)NC1CCS(=O)(=O)C1 (stereo not given)
cell number change: -24.1% | AC50 [1]: 29.1 µM [falling, single point]

O=C1C(=C(c2ccccc2)c2ccccc2)Nc2ccccc21
cell number change: -90.3% | AC50 [2]: 5.8 µM [falling, full curve] | AC50 [1]: 1.84 µM [falling, full curve]

O=C(c1c(F)cccc1F)N1CCN(S(=O)(=O)c2ccc3c(c2)OCCO3)CC1
cell number change: -18.4%

O=C(Nc1cccc(-c2cccc(Cl)c2)c1)C1CCN(Cc2ccon2)CC1
AC50 [1]: 0.366 µM [rising, full curve, poor fit]

Cc1cccc(-c2nc(CSCC(=O)N3CCN(c4ccccn4)CC3)c(C)o2)c1
cell number change: -62.6% | AC50 [2]: 29.1 µM [falling, single point] | AC50 [1]: 29.1 µM [falling, single point]

CC(C)C1N(C(=O)CN2CCCCC2)CCN1S(=O)(=O)c1ccccc1 (stereo not given)
cell number change: -34.8%

O=S(=O)(NC1CCC(NS(=O)(=O)c2c(F)cccc2F)CC1)c1ccc2c(c1)OCCO2 (stereo not given)
cell number change: 7.49% | AC50 [1]: 5.8 µM [rising, single point]

O=C(O)[C@H](Cc1c[nH]c2ccccc12)Nc1ncccc1[N+](=O)[O-]
cell number change: -16.2% | AC50 [1]: 3.66 µM [falling, full curve]

CC(C)[C@H](NC(=O)c1ccco1)C(=O)Nc1ccc(OC(F)F)cc1
cell number change: 59.9% | AC50 [2]: 1.84 µM [rising, partial curve]

O=C(NNC(=O)c1cccs1)c1ccccc1
cell number change: 53.2% | AC50 [2]: 0.13 µM [rising, full curve, poor fit]

NC(=O)c1ccc(NC(=O)COC(=O)/C=C/c2cn(-c3ccccc3)nc2-c2cccnc2)cc1
cell number change: -35.6% | AC50 [2]: 0.82 µM [falling, full curve, poor fit] | AC50 [1]: 3.66 µM [rising, single point]

O=C(NCc1ccccc1)C(=O)NCC1OCCN1S(=O)(=O)c1ccc2c(c1)OCCO2 (stereo not given)
cell number change: 5.69% | AC50 [1]: 18.4 µM [rising, single point]

COC(=O)c1ccc(CO/N=C/c2ccc(OC)cc2)o1
cell number change: -27.9% | AC50 [2]: 3.66 µM [falling, full curve, poor fit] | AC50 [1]: 2.91 µM [falling, full curve]

CC(C)C(=O)NCC(c1ccc2c(c1)OCO2)N1CCOCC1 (stereo not given)
cell number change: 22.4% | AC50 [1]: 0.731 µM [rising, full curve, poor fit]

O=C(CSc1nnnn1-c1cccc2ccccc12)Nc1ccc(N2CCOCC2)c(Cl)c1
cell number change: 48.4% | AC50 [2]: 0.731 µM [rising, full curve] | AC50 [1]: 4.61 µM [rising, partial curve]

CCc1ccc(-n2cc(-c3ccc(F)cc3)[n+]3c2SCCC3)cc1
cell number change: 14.8% | AC50 [1]: 0.116 µM [falling, full curve]

CN(C(=O)c1ccccc1C(=O)OCC(=O)c1ccccc1)c1ccccc1
cell number change: -9.46% | AC50 [1]: 0.146 µM [rising, full curve, poor fit]

Cn1cc(Br)c(C(=O)N/N=C/c2cc3ccccc3nc2Cl)n1
cell number change: -32% | AC50 [2]: 20.6 µM [falling, single point]

O=C(COCc1nc2ccccc2c(=O)[nH]1)NC1CCCC1
cell number change: -30.5% | AC50 [2]: 5.8 µM [falling, full curve, poor fit] | AC50 [1]: 5.17 µM [rising, full curve]

COc1ccc(CC(=O)Nc2ccc(S(=O)(=O)Nc3cc(C)on3)cc2)cc1
AC50 [1]: 0.00461 µM [rising, full curve, poor fit]

Cc1cc(NC(=O)CCSc2ccc(Cl)cc2)no1
AC50 [1]: 0.231 µM [falling, full curve, poor fit]

Cc1ccc2nc(NC(=O)C3CCCN(S(=O)(=O)c4cnc[nH]4)C3)sc2c1 (stereo not given)
cell number change: -23.5% | AC50 [1]: 1.46 µM [falling, partial curve]

COc1cccc(/C=C2\C(=O)C(=O)c3ccccc32)c1
AC50 [2]: 3.66 µM [rising, single point]

COc1ccc(NC(=O)CC2C(=O)N(c3ccc(OC)cc3)C(=O)N2CCN2CCN(C)CC2)cc1 (stereo not given)
cell number change: -9.75% | AC50 [2]: 6.51 µM [falling, single point]

CC[n+]1c(C)sc2c3ccsc3ccc21
cell number change: -6.9% | AC50 [2]: 1.64 µM [rising, partial curve, poor fit]

O=C(CSc1nnc(C2CC2)n1C1CC1)c1ccc(F)cc1
cell number change: 36.3% | AC50 [2]: 2.06 µM [rising, single point] | AC50 [1]: 16.4 µM [rising, single point]

CC1CCN(S(=O)(=O)c2cc(F)ccc2CN2C(=O)c3cccnc3C2=O)CC1
cell number change: -23.3% | AC50 [2]: 6.51 µM [rising, single point]

CCN(c1ccc(NC(=O)COC(=O)c2ccc(C)c(S(=O)(=O)N3CCOCC3)c2)cc1)C(C)C
AC50 [1]: 1.3 µM [falling, full curve]

O=C(COc1ccc(Br)cc1Br)NC1CCCC1
cell number change: -33.8% | AC50 [2]: 29.1 µM [falling, single point] | AC50 [1]: 20.6 µM [falling, single point]

Nc1cc(OC(=O)c2ccc(F)cc2)nn1S(=O)(=O)c1ccccc1
cell number change: 9.46%

COc1cccc2cc(C(=O)CS(=O)(=O)c3ccc(C)cc3)c(=O)oc12
cell number change: -51.9% | AC50 [2]: 14.6 µM [falling, partial curve, poor fit] | AC50 [1]: 5.8 µM [falling, full curve]

COc1ccc(NC(=O)CSc2nnc(NC(=O)C3CCC3)s2)c(OC)c1
cell number change: 32.8%

Cc1ccnc(NS(=O)(=O)c2ccc(NC(=O)c3snnc3C)cc2)n1
cell number change: 20.8%

NNS(=O)(=O)c1ccc(N2CCCC2=O)c([N+](=O)[O-])c1
cell number change: -27.5% | AC50 [2]: 0.517 µM [falling, full curve, poor fit] | AC50 [1]: 2.31 µM [falling, full curve]

CC(Cc1c[nH]c2ccccc12)C(=O)O (stereo not given)
cell number change: 7.74% | AC50 [1]: 0.651 µM [falling, full curve, poor fit]

Cc1ccc(OC2=NS(=O)(=O)c3ccccc32)cc1
cell number change: -63.7% | AC50 [2]: 29.1 µM [falling, single point] | AC50 [1]: 29.1 µM [falling, single point]

Cc1cccc(/C=N/NC(=O)c2cccc(NC(=O)c3ccccc3)c2)n1
cell number change: 14.5% | AC50 [1]: 8.2 µM [falling, partial curve, poor fit]

Cc1c(C(=O)NCC2CCCO2)sc2nc(-c3ccccc3)cn12 (stereo not given)
cell number change: -35.6% | AC50 [1]: 0.116 µM [rising, single point]
